Data on one sequence can be found in publication PMC6317261, “Functional dissection of the developmentally restricted BEN domain chromatin boundary factor Insensitive” (Epigenetics & Chromatin, 2019).

For some assays here: A negative result means that nothing was seen under these conditions. For some assays here: Protein sequences can lack the tags named with them. For some assays here: Construct, isoform or probe ends are uncertain for at least one entry.

One series concerns the target T1, GST:C domain (UniProt Q8SYK5).
T1 sequence (looked up): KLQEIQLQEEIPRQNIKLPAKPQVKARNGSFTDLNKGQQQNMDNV
Description: EMSA. To be noted: EMSA: 25 mM Tris-HCl pH 7.4, 100 mM KCl, 1 mM EDTA, 0.1 mM DTT, 0.1 mM PMSF, 0.03 mg/mL BSA, 10% glycerol, 0.5% Triton X-100, 0.25 mg/mL poly(dI-dC); recombinant protein; residues 209-253; protein details: N-terminal GST; label: 5'-32P. For orientation: In EMSA bound probe runs differently from free probe, usually more slowly.

A further series deals with GST:Ce-BEN (UniProt Q8SYK5). Description: EMSA. To be noted: EMSA: 25 mM Tris-HCl pH 7.4, 100 mM KCl, 1 mM EDTA, 0.1 mM DTT, 0.1 mM PMSF, 0.03 mg/mL BSA, 10% glycerol, 0.5% Triton X-100, 0.25 mg/mL poly(dI-dC); recombinant protein; protein details: N-terminal GST; label: 5'-32P.

As for “CCACCGCAAAATCCAATTGGAAGAGAGCGACT (double strand) [P3]”, the results for the binding result with GST:C domain and with GST:Ce-BEN were “no binding” and “binds”, respectively.
